The target of this test is X-ray repair cross complementing group1 (XRCC1) (human (endogenous in BGC823/DDP)) (UniProt P18887). Nature of the test: co-IP; BGC823/DDP cells pretreated with DDP or DDP+JP3 for 24 h; 500 μg of cell extract with anti-XRCC1 antibody or IgG (2 μg), Protein A/G agarose beads overnight at 4 °C; western blot for CK2α.

By UniProt entry, the sequences of proteins in these tests, tags left out.
UniProt P18887: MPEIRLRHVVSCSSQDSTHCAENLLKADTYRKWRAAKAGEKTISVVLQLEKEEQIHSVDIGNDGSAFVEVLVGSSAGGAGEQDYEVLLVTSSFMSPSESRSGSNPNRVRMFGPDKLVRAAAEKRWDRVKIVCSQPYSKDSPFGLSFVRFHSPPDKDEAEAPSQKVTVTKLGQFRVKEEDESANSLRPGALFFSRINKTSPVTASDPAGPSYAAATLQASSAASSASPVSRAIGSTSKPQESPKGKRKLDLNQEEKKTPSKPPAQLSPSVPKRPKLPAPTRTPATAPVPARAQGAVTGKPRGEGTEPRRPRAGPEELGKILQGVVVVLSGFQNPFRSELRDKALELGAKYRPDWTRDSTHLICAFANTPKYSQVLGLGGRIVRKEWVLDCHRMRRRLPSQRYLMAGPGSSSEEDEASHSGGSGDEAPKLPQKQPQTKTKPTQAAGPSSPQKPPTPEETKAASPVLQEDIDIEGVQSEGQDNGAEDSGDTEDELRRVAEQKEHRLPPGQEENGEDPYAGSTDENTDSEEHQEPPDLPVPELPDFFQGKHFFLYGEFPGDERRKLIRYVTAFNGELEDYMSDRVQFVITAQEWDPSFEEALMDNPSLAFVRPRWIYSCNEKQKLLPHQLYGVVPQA
UniProt P68400: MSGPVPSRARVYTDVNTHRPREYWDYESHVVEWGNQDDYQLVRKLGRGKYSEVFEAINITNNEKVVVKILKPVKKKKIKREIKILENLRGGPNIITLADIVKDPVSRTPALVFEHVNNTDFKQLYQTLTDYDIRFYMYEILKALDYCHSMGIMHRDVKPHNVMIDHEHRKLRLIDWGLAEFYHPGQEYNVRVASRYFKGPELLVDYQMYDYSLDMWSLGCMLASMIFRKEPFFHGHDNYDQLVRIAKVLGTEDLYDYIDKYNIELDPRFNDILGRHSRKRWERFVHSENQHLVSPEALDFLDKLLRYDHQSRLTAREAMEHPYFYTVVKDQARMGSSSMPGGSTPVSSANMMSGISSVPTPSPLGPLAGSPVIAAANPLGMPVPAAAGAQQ

Results are given in words; binding and its absence hold for the method and conditions named. Binding seen in cells or lysates may run through a third protein. Some binding calls cover weakened binding; strength is not graded here.

As for “casein kinase 2 alpha (CK2α) (from UniProt P68400 1-391) (enzyme)”, the binding entry is listed as “binds”.

The values above are taken from PMC7974513.
